Measurements reported in PubChem BioAssay AID493246 (Drosophila RNAi Screening Center, 2011).
The deposit covers about 21,000 reagents; shown is a random part of those with a known target gene and a result. Of all reagents, 429 (2%) were called active. 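Values are raw and not normalised between plates; calls rest on per-plate z-scores that were not deposited.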 Entries without a mark were called inactive. Not given: the amount of reagent, the time to read-out.

Assay: 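Identify essential fly genes by loss of cell viability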 (primary screen)
Cell system: Drosophila Kc and S2R+ cells
Knock-down reagent: long dsRNA against Drosophila genes
Measured: 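Raw, unnormalised count of remaining cells in each well; per-plate z-scores of cell number underlie the calls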
Reading the numbers: Kc cell number and S2R+ cell number: higher = more cells remaining
Rule for the call: 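Counted as a hit if cell number falls by a z-score of at least 3 within its plate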

After knock-down of CG15256 [DRSC01940], the screen gave Kc cell number, rep 1 = 1.51e6; Kc cell number, rep 2 = 1.56e6; S2R+ cell number, rep 1 = 1.24e6; S2R+ cell number, rep 2 = 1.42e6.
Cyp6a17 [DRSC07378] scored Kc cell number, rep 1 = 1.48e6; Kc cell number, rep 2 = 1.54e6; S2R+ cell number, rep 1 = 1.09e6; S2R+ cell number, rep 2 = 1.02e6.
With knock-down of CG5096 [DRSC02813], the record shows Kc cell number, rep 1 = 1.59e6; Kc cell number, rep 2 = 1.79e6; S2R+ cell number, rep 1 = 1.40e6; S2R+ cell number, rep 2 = 1.49e6.
CLS [DRSC15642] gave Kc cell number, rep 1 = 1.58e6; Kc cell number, rep 2 = 1.57e6; S2R+ cell number, rep 1 = 9.59e5; S2R+ cell number, rep 2 = 1.08e6.
Against CG2519 [DRSC12312] the deposit lists Kc cell number, rep 1 = 1.61e6; Kc cell number, rep 2 = 1.67e6; S2R+ cell number, rep 1 = 1.19e6; S2R+ cell number, rep 2 = 1.29e6.
dbr [DRSC00274] gave Kc cell number, rep 1 = 1.21e6; Kc cell number, rep 2 = 1.01e6; S2R+ cell number, rep 1 = 6.47e5; S2R+ cell number, rep 2 = 6.47e5.
Silencing of CG5567 [DRSC10517] gave: Kc cell number, rep 1 = 1.43e6; Kc cell number, rep 2 = 1.46e6; S2R+ cell number, rep 1 = 1.29e6; S2R+ cell number, rep 2 = 1.28e6.
Against Traf-like [DRSC19894], the entry reads Kc cell number, rep 1 = 6.72e5; S2R+ cell number, rep 1 = 8.73e5.
CG31326 [DRSC16532] gave Kc cell number, rep 1 = 1.50e6; Kc cell number, rep 2 = 1.49e6; S2R+ cell number, rep 1 = 1.06e6; S2R+ cell number, rep 2 = 1.23e6.
Against pkaap [DRSC01925], the values are Kc cell number, rep 1 = 1.60e6; Kc cell number, rep 2 = 1.69e6; S2R+ cell number, rep 1 = 1.33e6; S2R+ cell number, rep 2 = 1.51e6.
Against Adgf-A [DRSC10566], the values are Kc cell number, rep 1 = 1.45e6; Kc cell number, rep 2 = 1.45e6; S2R+ cell number, rep 1 = 1.19e6; S2R+ cell number, rep 2 = 1.29e6.
With knock-down of CG8778 [DRSC07264] the results were Kc cell number, rep 1 = 1.59e6; Kc cell number, rep 2 = 1.59e6; S2R+ cell number, rep 1 = 1.18e6; S2R+ cell number, rep 2 = 1.38e6.
After knock-down of CG11722 [DRSC14358], the record shows Kc cell number, rep 1 = 1.73e6; Kc cell number, rep 2 = 1.65e6; S2R+ cell number, rep 1 = 1.19e6; S2R+ cell number, rep 2 = 1.34e6.
With knock-down of CG6937 [DRSC16140], the screen gave Kc cell number, rep 1 = 1.69e6; Kc cell number, rep 2 = 1.61e6; S2R+ cell number, rep 1 = 8.25e5; S2R+ cell number, rep 2 = 9.16e5.
Against Usp14 [DRSC02853], the entry reads Kc cell number, rep 1 = 1.48e6; Kc cell number, rep 2 = 1.54e6; S2R+ cell number, rep 1 = 1.03e6; S2R+ cell number, rep 2 = 1.09e6.
Knock-down of Cyp4ae1 [DRSC18455] gave: Kc cell number, rep 1 = 5.31e5; S2R+ cell number, rep 1 = 8.13e5.
Depletion of Hira [DRSC18672] gave: Kc cell number, rep 1 = 1.56e6; Kc cell number, rep 2 = 1.60e6; S2R+ cell number, rep 1 = 9.95e5; S2R+ cell number, rep 2 = 1.09e6.
Knock-down of CG10887 [DRSC14277] came out at: Kc cell number, rep 1 = 1.46e6; Kc cell number, rep 2 = 1.51e6; S2R+ cell number, rep 1 = 1.01e6; S2R+ cell number, rep 2 = 1.10e6.
Silencing of Tsp42Eg [DRSC06112] came out at: Kc cell number, rep 1 = 1.40e6; Kc cell number, rep 2 = 1.47e6; S2R+ cell number, rep 1 = 1.18e6; S2R+ cell number, rep 2 = 1.22e6.
Depletion of CG15617 [DRSC06570] gave: Kc cell number, rep 1 = 1.65e6; Kc cell number, rep 2 = 1.68e6; S2R+ cell number, rep 1 = 1.18e6; S2R+ cell number, rep 2 = 1.33e6.
Knock-down of CG6688 [DRSC16094] gave: Kc cell number, rep 1 = 1.43e6; Kc cell number, rep 2 = 1.53e6; S2R+ cell number, rep 1 = 9.78e5; S2R+ cell number, rep 2 = 1.10e6.
CG3626 [DRSC18318] gave Kc cell number, rep 1 = 1.47e6; Kc cell number, rep 2 = 1.41e6; S2R+ cell number, rep 1 = 1.04e6; S2R+ cell number, rep 2 = 1.01e6.
After knock-down of Uck [DRSC13661], the record shows Kc cell number, rep 1 = 1.17e6; Kc cell number, rep 2 = 1.52e6; S2R+ cell number, rep 1 = 1.12e6; S2R+ cell number, rep 2 = 1.14e6.
Silencing of Uck [DRSC16028] resulted in: Kc cell number, rep 1 = 1.48e6; Kc cell number, rep 2 = 1.46e6; S2R+ cell number, rep 1 = 8.98e5; S2R+ cell number, rep 2 = 1.02e6.
Against bowl [DRSC00805], the entry reads Kc cell number, rep 1 = 1.42e6; Kc cell number, rep 2 = 1.39e6; S2R+ cell number, rep 1 = 1.22e6; S2R+ cell number, rep 2 = 1.22e6.
CG14440 [DRSC17933] gave Kc cell number, rep 1 = 1.33e6; Kc cell number, rep 2 = 1.36e6; S2R+ cell number, rep 1 = 7.85e5; S2R+ cell number, rep 2 = 8.64e5.
nerfin-1 [DRSC08729] scored Kc cell number, rep 1 = 1.60e6; Kc cell number, rep 2 = 1.39e6; S2R+ cell number, rep 1 = 8.76e5; S2R+ cell number, rep 2 = 1.16e6.
